The target in assay [1] is endogenous PACS2 (SY5Y cells) (human (endogenous in SY5Y)) (UniProt Q86VP3). Nature of the assay: co-IP; antibodies against PACS2; endogenous proteins in isolated ER-cytosol and MAM fractions of SY5Y cells; western blotting. On the technique in general: In western blotting, separated proteins are transferred to a membrane and probed.
The target of a further assay is PACS2, in HEK293 cells (UniProt Q86VP3). Nature of the assay: co-IP; coimmunoprecipitation of CK2A1, PACS2 and PKD2 in HEK293 cells; baits and constructs only in SI Appendix.
Assay [2] concerns the target T1, polycystic kidney disease 2 (PKD2), in HEK293 cells (UniProt Q13563).
T1 sequence: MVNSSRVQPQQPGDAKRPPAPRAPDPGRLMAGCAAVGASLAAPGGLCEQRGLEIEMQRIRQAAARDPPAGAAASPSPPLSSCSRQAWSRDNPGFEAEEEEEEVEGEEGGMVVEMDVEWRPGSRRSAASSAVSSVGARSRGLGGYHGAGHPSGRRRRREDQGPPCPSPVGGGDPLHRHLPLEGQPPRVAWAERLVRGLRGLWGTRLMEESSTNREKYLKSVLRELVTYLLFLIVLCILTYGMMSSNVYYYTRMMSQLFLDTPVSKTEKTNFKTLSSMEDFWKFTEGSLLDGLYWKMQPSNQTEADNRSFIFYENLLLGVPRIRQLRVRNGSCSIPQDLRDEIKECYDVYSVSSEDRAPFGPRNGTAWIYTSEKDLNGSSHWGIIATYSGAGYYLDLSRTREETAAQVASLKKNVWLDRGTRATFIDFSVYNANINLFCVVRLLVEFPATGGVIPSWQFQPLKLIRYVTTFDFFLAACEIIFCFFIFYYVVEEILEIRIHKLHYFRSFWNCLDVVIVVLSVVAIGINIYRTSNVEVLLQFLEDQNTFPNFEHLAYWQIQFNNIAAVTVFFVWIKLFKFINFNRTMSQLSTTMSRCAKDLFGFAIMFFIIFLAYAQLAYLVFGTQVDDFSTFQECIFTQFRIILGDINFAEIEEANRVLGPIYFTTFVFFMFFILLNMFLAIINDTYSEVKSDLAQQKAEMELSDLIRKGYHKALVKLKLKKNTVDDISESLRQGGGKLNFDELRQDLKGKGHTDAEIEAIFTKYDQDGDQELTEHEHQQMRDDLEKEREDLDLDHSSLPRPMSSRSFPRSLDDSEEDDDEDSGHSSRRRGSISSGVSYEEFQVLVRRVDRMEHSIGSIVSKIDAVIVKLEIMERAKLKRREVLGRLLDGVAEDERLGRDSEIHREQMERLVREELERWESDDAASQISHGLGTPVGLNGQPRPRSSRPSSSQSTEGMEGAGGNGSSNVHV
The description is as above.

Chains of the proteins cited; added tags and fusions are not shown.
UniProt Q86VP3: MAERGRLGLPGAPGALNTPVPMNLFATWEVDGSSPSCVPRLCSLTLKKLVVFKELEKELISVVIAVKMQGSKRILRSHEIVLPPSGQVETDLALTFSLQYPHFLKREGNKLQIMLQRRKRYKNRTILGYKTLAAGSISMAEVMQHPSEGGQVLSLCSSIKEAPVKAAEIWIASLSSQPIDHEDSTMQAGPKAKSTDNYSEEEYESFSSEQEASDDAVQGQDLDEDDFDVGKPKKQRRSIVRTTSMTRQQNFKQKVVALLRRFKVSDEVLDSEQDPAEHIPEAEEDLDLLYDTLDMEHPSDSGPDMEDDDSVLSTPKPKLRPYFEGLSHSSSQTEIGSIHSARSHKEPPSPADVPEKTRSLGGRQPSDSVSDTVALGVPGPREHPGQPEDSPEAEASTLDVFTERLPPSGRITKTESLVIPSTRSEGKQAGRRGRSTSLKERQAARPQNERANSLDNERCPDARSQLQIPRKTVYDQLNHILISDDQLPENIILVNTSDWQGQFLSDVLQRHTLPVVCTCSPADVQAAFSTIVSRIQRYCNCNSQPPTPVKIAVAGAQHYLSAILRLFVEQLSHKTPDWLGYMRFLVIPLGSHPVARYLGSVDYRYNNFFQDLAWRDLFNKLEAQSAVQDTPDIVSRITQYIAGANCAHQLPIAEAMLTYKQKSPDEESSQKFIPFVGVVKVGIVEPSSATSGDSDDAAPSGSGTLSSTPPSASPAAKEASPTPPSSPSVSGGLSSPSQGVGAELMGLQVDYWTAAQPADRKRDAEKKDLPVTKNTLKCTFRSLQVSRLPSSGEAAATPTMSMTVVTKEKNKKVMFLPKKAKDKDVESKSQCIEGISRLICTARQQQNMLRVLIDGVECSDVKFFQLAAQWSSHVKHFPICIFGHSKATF
UniProt P68400: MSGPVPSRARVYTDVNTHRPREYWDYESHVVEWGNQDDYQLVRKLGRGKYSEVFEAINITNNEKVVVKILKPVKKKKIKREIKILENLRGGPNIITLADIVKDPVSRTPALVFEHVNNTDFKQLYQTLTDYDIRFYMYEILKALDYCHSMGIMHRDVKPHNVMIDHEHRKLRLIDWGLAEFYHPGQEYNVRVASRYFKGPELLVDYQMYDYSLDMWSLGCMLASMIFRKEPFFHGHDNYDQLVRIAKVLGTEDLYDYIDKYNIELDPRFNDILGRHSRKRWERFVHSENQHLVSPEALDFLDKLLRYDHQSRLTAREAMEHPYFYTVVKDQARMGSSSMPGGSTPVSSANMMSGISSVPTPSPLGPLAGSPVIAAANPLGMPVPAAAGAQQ

Results are given in words; binding and its absence hold for the method and conditions named. In cells and extracts the contact can be indirect. Some results given as binding are weak or reduced against the parent protein; the word gives no strength.

As to “endogenous CK2A1 (SY5Y cells) (from UniProt P68400 1-391) (enzyme)”, the binding entry in assay [1] is listed as “binds”.

With “casein kinase 2 alpha 1 (CK2A1), in HEK293 cells (from UniProt P68400 1-391) (enzyme)”, the binding result with PACS2, in HEK293 cells is recorded as “binds”; in assay [2] it was “binds”.

B1: polycystic kidney disease 2 (PKD2), in HEK293 cells (protein, UniProt Q13563 1-968)
chain: MVNSSRVQPQQPGDAKRPPAPRAPDPGRLMAGCAAVGASLAAPGGLCEQRGLEIEMQRIRQAAARDPPAGAAASPSPPLSSCSRQAWSRDNPGFEAEEEEEEVEGEEGGMVVEMDVEWRPGSRRSAASSAVSSVGARSRGLGGYHGAGHPSGRRRRREDQGPPCPSPVGGGDPLHRHLPLEGQPPRVAWAERLVRGLRGLWGTRLMEESSTNREKYLKSVLRELVTYLLFLIVLCILTYGMMSSNVYYYTRMMSQLFLDTPVSKTEKTNFKTLSSMEDFWKFTEGSLLDGLYWKMQPSNQTEADNRSFIFYENLLLGVPRIRQLRVRNGSCSIPQDLRDEIKECYDVYSVSSEDRAPFGPRNGTAWIYTSEKDLNGSSHWGIIATYSGAGYYLDLSRTREETAAQVASLKKNVWLDRGTRATFIDFSVYNANINLFCVVRLLVEFPATGGVIPSWQFQPLKLIRYVTTFDFFLAACEIIFCFFIFYYVVEEILEIRIHKLHYFRSFWNCLDVVIVVLSVVAIGINIYRTSNVEVLLQFLEDQNTFPNFEHLAYWQIQFNNIAAVTVFFVWIKLFKFINFNRTMSQLSTTMSRCAKDLFGFAIMFFIIFLAYAQLAYLVFGTQVDDFSTFQECIFTQFRIILGDINFAEIEEANRVLGPIYFTTFVFFMFFILLNMFLAIINDTYSEVKSDLAQQKAEMELSDLIRKGYHKALVKLKLKKNTVDDISESLRQGGGKLNFDELRQDLKGKGHTDAEIEAIFTKYDQDGDQELTEHEHQQMRDDLEKEREDLDLDHSSLPRPMSSRSFPRSLDDSEEDDDEDSGHSSRRRGSISSGVSYEEFQVLVRRVDRMEHSIGSIVSKIDAVIVKLEIMERAKLKRREVLGRLLDGVAEDERLGRDSEIHREQMERLVREELERWESDDAASQISHGLGTPVGLNGQPRPRSSRPSSSQSTEGMEGAGGNGSSNVHV
Take B1: the binding entry with PACS2, in HEK293 cells is given as “binds”.

B2: endogenous PKD2 (SY5Y cells) (protein, UniProt Q13563 1-968)
chain: MVNSSRVQPQQPGDAKRPPAPRAPDPGRLMAGCAAVGASLAAPGGLCEQRGLEIEMQRIRQAAARDPPAGAAASPSPPLSSCSRQAWSRDNPGFEAEEEEEEVEGEEGGMVVEMDVEWRPGSRRSAASSAVSSVGARSRGLGGYHGAGHPSGRRRRREDQGPPCPSPVGGGDPLHRHLPLEGQPPRVAWAERLVRGLRGLWGTRLMEESSTNREKYLKSVLRELVTYLLFLIVLCILTYGMMSSNVYYYTRMMSQLFLDTPVSKTEKTNFKTLSSMEDFWKFTEGSLLDGLYWKMQPSNQTEADNRSFIFYENLLLGVPRIRQLRVRNGSCSIPQDLRDEIKECYDVYSVSSEDRAPFGPRNGTAWIYTSEKDLNGSSHWGIIATYSGAGYYLDLSRTREETAAQVASLKKNVWLDRGTRATFIDFSVYNANINLFCVVRLLVEFPATGGVIPSWQFQPLKLIRYVTTFDFFLAACEIIFCFFIFYYVVEEILEIRIHKLHYFRSFWNCLDVVIVVLSVVAIGINIYRTSNVEVLLQFLEDQNTFPNFEHLAYWQIQFNNIAAVTVFFVWIKLFKFINFNRTMSQLSTTMSRCAKDLFGFAIMFFIIFLAYAQLAYLVFGTQVDDFSTFQECIFTQFRIILGDINFAEIEEANRVLGPIYFTTFVFFMFFILLNMFLAIINDTYSEVKSDLAQQKAEMELSDLIRKGYHKALVKLKLKKNTVDDISESLRQGGGKLNFDELRQDLKGKGHTDAEIEAIFTKYDQDGDQELTEHEHQQMRDDLEKEREDLDLDHSSLPRPMSSRSFPRSLDDSEEDDDEDSGHSSRRRGSISSGVSYEEFQVLVRRVDRMEHSIGSIVSKIDAVIVKLEIMERAKLKRREVLGRLLDGVAEDERLGRDSEIHREQMERLVREELERWESDDAASQISHGLGTPVGLNGQPRPRSSRPSSSQSTEGMEGAGGNGSSNVHV
Consider B2, for which, in assay [1], the binding entry is given as “binds”.

Source of the values: article PMC10410754.
